This assay addresses T1, LIM homeodomain transcription factor Islet1 (ISL1) (human (endogenous in hLECs)) (UniProt P61371).
T1 sequence: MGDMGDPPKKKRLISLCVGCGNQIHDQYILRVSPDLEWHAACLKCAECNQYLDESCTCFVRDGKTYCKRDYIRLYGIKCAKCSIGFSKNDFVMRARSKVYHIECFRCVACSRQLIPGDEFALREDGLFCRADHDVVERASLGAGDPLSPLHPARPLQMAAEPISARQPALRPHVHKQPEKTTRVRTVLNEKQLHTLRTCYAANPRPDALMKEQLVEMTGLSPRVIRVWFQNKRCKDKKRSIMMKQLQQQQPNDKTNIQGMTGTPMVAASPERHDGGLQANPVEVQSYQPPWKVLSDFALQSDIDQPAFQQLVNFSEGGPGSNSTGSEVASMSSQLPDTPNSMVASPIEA
Description: co-IP; reciprocal; whole lysates of LECs incubated 12 h at 4 °C with anti-ISL1 or anti-CDK5 antibody, protein-A/G agarose beads 8 h at 4 °C, washed with PBS, immunoblot; cells also transfected with Adv-NC or Adv-Efnb2 under normoxia or hypoxia.

Results are given in words; binding and its absence hold for the method and conditions named. In cells and extracts the contact can be indirect. Some results given as binding are weak or reduced against the parent protein; the word gives no strength.

The record followed here is article PMC11574162.

As for CDK5 (from UniProt Q00535 1-292), the binding entry is “binds”.
